Reference: publication PMC6834163
These are yes or no findings as the source states them, for the method shown. Some binding calls cover weakened binding; strength is not graded here.

Sequences of proteins named here, by UniProt entry; tags and fusion partners are left off. Residues count along the entry.
UniProt Q9Y6R7, residues 24-5405: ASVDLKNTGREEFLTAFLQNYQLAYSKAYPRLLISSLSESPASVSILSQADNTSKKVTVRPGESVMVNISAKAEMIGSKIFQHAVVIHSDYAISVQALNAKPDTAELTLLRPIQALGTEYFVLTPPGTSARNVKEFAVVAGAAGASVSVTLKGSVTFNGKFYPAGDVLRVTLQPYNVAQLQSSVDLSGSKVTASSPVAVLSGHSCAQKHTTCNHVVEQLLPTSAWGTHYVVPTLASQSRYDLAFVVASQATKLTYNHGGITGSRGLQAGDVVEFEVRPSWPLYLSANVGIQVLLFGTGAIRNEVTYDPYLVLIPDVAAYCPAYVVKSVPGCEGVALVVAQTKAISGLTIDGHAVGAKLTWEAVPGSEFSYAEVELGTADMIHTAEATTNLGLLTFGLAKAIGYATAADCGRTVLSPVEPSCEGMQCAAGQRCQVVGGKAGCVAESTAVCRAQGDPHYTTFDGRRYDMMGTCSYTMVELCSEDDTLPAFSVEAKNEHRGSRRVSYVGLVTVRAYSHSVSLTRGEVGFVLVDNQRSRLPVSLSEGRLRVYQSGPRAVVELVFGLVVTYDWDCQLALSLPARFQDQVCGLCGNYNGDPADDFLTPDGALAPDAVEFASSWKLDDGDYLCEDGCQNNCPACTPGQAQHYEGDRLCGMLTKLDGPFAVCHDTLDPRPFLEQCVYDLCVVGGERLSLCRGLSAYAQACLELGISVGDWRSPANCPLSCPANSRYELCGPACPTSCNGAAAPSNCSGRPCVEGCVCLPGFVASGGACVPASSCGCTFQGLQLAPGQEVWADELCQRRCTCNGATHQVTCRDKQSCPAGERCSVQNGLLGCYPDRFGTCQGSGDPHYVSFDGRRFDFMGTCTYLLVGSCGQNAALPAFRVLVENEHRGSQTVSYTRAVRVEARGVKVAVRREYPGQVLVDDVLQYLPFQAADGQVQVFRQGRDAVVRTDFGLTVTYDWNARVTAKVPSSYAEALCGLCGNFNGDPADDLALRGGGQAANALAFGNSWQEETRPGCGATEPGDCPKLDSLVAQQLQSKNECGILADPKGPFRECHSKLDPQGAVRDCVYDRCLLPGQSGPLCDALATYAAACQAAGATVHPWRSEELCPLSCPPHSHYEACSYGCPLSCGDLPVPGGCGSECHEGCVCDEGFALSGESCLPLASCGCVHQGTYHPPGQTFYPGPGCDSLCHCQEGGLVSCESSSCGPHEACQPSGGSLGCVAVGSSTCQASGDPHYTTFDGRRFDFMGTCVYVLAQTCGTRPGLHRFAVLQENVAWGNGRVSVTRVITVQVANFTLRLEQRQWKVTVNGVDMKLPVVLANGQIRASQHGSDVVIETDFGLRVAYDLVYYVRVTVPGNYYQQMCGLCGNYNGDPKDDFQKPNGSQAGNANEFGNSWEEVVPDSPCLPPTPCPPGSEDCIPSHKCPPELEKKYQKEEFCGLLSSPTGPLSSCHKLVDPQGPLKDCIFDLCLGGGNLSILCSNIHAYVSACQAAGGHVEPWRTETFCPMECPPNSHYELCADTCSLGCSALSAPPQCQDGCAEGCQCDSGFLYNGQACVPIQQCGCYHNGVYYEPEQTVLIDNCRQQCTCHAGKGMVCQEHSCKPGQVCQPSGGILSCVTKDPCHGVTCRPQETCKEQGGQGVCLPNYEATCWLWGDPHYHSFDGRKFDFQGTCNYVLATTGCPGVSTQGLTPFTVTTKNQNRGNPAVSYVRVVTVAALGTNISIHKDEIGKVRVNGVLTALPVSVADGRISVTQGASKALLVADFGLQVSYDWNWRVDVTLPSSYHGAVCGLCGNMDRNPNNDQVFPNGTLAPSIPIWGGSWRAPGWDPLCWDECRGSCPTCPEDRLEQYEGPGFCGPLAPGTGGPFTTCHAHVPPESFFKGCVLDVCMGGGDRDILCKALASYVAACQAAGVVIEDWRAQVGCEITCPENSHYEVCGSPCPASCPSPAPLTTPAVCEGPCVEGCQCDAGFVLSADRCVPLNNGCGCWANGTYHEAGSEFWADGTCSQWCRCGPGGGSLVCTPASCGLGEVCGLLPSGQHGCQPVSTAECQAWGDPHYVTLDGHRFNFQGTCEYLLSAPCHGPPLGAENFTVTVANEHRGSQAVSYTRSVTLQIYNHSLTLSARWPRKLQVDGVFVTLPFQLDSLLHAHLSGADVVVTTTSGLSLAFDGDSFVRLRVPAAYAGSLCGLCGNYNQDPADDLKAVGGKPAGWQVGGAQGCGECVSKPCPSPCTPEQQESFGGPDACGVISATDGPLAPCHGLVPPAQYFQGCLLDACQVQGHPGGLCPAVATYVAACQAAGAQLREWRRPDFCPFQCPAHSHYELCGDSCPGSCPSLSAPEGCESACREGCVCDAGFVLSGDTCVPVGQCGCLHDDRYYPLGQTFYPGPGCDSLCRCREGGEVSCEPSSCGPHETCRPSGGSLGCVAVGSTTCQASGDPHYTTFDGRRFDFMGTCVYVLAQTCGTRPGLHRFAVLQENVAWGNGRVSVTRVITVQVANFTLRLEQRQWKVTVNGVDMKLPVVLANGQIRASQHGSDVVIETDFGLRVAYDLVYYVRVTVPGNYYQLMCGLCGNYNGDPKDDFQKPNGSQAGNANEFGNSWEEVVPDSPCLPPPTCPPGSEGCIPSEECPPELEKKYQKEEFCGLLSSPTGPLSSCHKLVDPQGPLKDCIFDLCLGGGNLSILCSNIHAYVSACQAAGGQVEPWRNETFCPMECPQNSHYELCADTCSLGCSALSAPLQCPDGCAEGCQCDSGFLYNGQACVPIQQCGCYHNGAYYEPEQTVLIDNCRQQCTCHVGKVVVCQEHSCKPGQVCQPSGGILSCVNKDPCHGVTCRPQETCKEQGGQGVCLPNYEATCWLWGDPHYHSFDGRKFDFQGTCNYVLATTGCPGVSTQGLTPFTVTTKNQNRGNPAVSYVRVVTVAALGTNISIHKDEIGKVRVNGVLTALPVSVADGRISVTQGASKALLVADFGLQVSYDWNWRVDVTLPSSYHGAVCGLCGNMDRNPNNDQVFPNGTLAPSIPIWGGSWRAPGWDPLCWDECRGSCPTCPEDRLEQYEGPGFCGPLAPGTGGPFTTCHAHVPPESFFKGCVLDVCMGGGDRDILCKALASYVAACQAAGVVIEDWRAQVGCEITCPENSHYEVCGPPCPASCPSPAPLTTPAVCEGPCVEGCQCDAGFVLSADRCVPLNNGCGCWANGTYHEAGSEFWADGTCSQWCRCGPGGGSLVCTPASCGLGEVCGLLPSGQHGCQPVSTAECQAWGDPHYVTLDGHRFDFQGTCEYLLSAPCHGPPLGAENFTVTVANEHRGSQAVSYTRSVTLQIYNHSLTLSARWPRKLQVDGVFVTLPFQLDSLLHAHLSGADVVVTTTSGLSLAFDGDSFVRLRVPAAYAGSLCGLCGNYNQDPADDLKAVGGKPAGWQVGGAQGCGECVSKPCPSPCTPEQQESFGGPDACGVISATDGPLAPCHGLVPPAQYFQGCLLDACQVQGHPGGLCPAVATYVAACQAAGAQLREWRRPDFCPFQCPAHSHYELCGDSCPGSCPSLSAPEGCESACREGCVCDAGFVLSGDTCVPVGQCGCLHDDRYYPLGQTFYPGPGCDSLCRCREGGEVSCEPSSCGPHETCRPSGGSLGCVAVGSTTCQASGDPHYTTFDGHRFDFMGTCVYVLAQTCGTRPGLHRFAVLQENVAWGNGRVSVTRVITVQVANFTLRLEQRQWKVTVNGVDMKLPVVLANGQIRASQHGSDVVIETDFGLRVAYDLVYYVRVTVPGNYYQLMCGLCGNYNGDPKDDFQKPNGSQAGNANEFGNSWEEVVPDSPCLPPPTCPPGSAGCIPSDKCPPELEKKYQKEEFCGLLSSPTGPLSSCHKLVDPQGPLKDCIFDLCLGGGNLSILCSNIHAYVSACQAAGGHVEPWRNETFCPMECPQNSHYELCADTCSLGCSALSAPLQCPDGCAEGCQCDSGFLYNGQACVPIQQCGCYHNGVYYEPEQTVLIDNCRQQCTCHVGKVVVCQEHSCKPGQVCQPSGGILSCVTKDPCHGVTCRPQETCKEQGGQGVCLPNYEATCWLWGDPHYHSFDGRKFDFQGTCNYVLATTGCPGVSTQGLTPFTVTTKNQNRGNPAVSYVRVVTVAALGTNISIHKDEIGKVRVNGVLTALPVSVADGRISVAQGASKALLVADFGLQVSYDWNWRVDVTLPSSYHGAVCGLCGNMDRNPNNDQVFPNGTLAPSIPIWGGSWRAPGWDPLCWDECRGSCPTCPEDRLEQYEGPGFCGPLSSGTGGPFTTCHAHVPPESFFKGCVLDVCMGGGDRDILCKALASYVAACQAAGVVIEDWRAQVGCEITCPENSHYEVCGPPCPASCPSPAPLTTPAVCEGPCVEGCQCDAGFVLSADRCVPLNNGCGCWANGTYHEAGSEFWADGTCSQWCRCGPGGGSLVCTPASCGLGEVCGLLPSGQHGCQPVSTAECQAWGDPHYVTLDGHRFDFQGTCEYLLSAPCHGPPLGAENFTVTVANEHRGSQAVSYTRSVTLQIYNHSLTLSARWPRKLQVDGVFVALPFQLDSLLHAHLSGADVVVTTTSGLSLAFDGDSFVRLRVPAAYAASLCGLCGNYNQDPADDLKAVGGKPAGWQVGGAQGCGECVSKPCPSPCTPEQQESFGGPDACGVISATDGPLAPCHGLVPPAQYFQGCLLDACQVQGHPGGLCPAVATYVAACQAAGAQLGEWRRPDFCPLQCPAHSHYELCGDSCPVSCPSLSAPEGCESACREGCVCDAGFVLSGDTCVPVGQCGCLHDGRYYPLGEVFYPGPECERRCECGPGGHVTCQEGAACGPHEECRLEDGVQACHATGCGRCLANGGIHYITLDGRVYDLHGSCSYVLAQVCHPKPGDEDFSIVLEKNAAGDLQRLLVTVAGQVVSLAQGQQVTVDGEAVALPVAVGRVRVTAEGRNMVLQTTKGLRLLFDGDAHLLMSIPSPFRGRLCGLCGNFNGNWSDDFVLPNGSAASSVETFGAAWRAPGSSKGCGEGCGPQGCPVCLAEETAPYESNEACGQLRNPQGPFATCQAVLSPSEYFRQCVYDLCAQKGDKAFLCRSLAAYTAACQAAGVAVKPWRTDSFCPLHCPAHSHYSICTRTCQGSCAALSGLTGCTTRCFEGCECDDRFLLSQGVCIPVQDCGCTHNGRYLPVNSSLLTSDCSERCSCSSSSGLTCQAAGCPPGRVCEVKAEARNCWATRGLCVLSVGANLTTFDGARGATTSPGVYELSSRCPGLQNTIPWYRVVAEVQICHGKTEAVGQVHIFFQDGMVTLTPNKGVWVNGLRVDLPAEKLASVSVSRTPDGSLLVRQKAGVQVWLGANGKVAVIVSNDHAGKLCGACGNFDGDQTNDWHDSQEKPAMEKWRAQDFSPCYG

Assays:
[1] = molecular target: TFF3 (trefoil factor family peptide 3) (human (endogenous in saliva)) (UniProt Q07654); experiment: SDS-PAGE under non-reducing versus reducing conditions with Western blot; low-molecular-mass SEC fractions of saliva (Superdex 75 HL; some also after Resource Q6 anion exchange); 15% SDS-PAGE, anti-TFF3 Western blot; 18k band non-reduced, 7k band reduced
[2] = molecular target: IgG Fc binding protein (FCGBP) (human (endogenous in saliva)) (UniProt Q9Y6R7); experiment: native gel or EMSA; saliva of three individuals separated by SEC (Superdex 75 HL; 20 mM Tris-HCl pH 7.0, 30 mM NaCl); high-molecular-mass fractions B7 run on 1% non-denaturing agarose gel (0.1% SDS) and Western blotted with antisera against TFF3 and FCGBP; both recognized the same bands

binding [1]: binds
binding [2]: binds
B1: TFF3 (trefoil factor family peptide 3) (protein, UniProt Q07654 22-80)
chain: EEYVGLSANQCAVPAKDRVDCGYPHVTPKECNNRGCCFDSRIPGVPWCFKPLQEAECTF
